# In PubChem BioAssay AID504834 (National Center for Advancing Translational Sciences (NCATS), 2011):
# About 22,000 (6.9%) of roughly 320,000 compounds were called active. This list was built around the results that the source calls inconclusive (neither active nor inactive); the mix of calls is not that of the screen. The call rests on the fitted dose curve; in most records, active means well fitted inhibition curve with a large enough effect; inconclusive means small, poorly fitted or top-dose-only effect, or another doubt; inactive means no such curve, though single readings can be large or run the other way. Where the call is inconclusive, the potency comes from a doubtful curve fit.
# Experiment: Primary qHTS for delayed death inhibitors of the malarial parasite plastid, 96 hour incubation
# Conditions: P. falciparum luciferase reporter growth; series mostly up to 28.7 µM; activity change, negative = inhibition: at the top concentration
# In short: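 P. falciparum expressing integrated firefly luciferase grown in erythrocytes (2% hematocrit, 0.05% parasitemia final) with compounds for 96 hours at 37 C, 5% CO2. Growth inhibition read as loss of luminescence after adding luciferase detection reagent.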
# On the % scale 0 is the no-effect control and ±100 the full control effect; potency means the concentration at half of the fitted maximal effect.
Compound,Potency,"activity change, negative = inhibition"
COc1ccc2nc(SCC(=O)NC3CC3)c(C#N)cc2c1,"inconclusive: 10.4 µM [inhibitor, single point]",
CCC(=O)N1CCN(c2ccccc2NC(=O)COc2ccc(C(C)C)cc2)CC1,"inconclusive: 8.28 µM [inhibitor, partial curve]",
Cc1ccc(-n2c(COc3cccc(C)c3)n[nH]c2=S)cc1,"inconclusive: 9.28 µM [inhibitor, single point]",
CCN(CC)C(=O)C(=O)c1cccn1-c1cccc(-n2cccc2C(=O)C(=O)N(CC)CC)c1C#N,"inconclusive: 0.0041 µM [inhibitor, full curve, poor fit]",
Cc1ccc(S(=O)(=O)c2c(C)cc(C)nc2N2CCOCC2)cc1,"inconclusive: 0.657 µM [inhibitor, partial curve, poor fit]",
CCOc1cc2c(cc1/C=C1/NC(=O)N(CC(=O)OC)C1=O)OCO2,"inconclusive: 1.85 µM [inhibitor, partial curve, poor fit]",
COc1ccccc1OCC(=O)Nc1ccc(S(=O)(=O)N2CCCCCC2)cc1,"inconclusive: 18.5 µM [inhibitor, single point]",
Cc1ccc(C)n1-c1cccc(NC(=O)c2ccccc2)c1,,inactive: 13.4%
NC(N)=NS(=O)(=O)c1ccc(N/C=C\C(=O)c2ccncc2)cc1,,inactive: 18.7%
COc1ccc(CCN(C)C(=O)COc2ccc(N(C)S(=O)(=O)c3ccc(C)cc3)cc2)cc1OC,active: 10.4 µM,
NC(=O)c1nsc(C(=O)N(c2ccccc2)C(C(=O)NC2CCCC2)c2ccncc2)c1N (stereo not drawn),,inactive: 17.8%
O=C(Nc1cnc2ccccn2c1=O)c1ccc(F)cc1,active: 13.1 µM,
O=C(COC(=O)c1ccccc1NC(=O)c1ccco1)NCC1CCCCC1,"inconclusive: 18.5 µM [inhibitor, single point]",
CCN(CC)S(=O)(=O)c1ccc2c(c1)c(=O)c(C(=O)NCCc1ccc(OC)c(OC)c1)cn2C,"inconclusive: 1.47 µM [inhibitor, full curve]",
CN1CCC(=NNC(=O)CN(c2cccc([N+](=O)[O-])c2)S(=O)(=O)c2ccccc2)CC1,"inconclusive: 18.5 µM [inhibitor, single point]",
CCN(CC)Cc1ccc(NC(=O)c2sc3cc(Cl)ccc3c2Cl)cc1,"inconclusive: 10.4 µM [inhibitor, partial curve]",
COCCCC1CCN(C(=O)C2CCC(=O)N(CCc3ccccc3)C2)CC1 (stereo not drawn),,inactive: -19.7%
COc1cccc(C(=O)NCCS(=O)(=O)NCCCc2ccccc2)c1,,inactive: 41.8%
CCc1ccccc1NC(=O)c1ccc(Cn2cc([N+](=O)[O-])cn2)cc1,"inconclusive: 10.4 µM [inhibitor, partial curve]",
O=C(O)c1ccc(N2CCCC2=O)cc1,"inconclusive: 14.7 µM [inhibitor, partial curve, poor fit]",
CCOCCCN(C(=O)CNC(=O)c1ccco1)C(C(=O)NC1CCCC1)c1cccc(OC)c1 (stereo not drawn),"inconclusive: 11.7 µM [inhibitor, single point]",
C=CCN(c1ccc(Cl)cc1)S(=O)(=O)c1cccc(C(=O)O)c1,"inconclusive: 14.7 µM [inhibitor, partial curve, poor fit]",
Cc1nc2cc(C(=O)N3CCC4(CC3)OCCO4)ccc2n1-c1ccc(Br)cc1,,inactive: 23.4%
CCC(=O)Nc1ccc(Cl)c(NC(=S)NC(=O)c2cc3ccccc3o2)c1,,inactive: -8.49%
C[n+]1ccccc1/C=C/c1c(F)cccc1F,"inconclusive: 18.5 µM [inhibitor, single point]",
COc1cccc(OP(=O)(Nc2ccccc2)Oc2cccc(OC)c2)c1,"inconclusive: 14.7 µM [inhibitor, single point]",
Cn1c2ccc(F)cc2c2nnc(SCCN3CCOCC3)nc21,,inactive: 7.63%

Compound,Potency,"activity change, negative = inhibition"
Cc1ccnc(NC(=O)C2CCCN(c3ncnc4c3nc3n4CCCCC3)C2)c1 (stereo not drawn),active: 10.4 µM,
O=C(Nc1ccc(F)cc1F)c1c(C(F)(F)F)ccnc1Oc1ccc(Cl)cc1,"inconclusive: 18.5 µM [inhibitor, single point]",
O=C(COc1ccccc1C(=O)c1cnn(-c2ccccc2)c1)Nc1ccc2ccccc2c1,,inactive: -10.1%
c1cncc(CNc2nc(N3CCOCC3)nc(N3CCOCC3)n2)c1,"inconclusive: 13.1 µM [inhibitor, partial curve, poor fit]",
CCN1CCc2nc(NC(=O)c3ccc(S(=O)(=O)N(C)C)cc3)sc2C1,,inactive: -9.27%
CCCCc1nc2ccccc2c(=O)n1NC(=O)c1c(O)c2c(n(CC(C)C)c1=O)CCCC2,"inconclusive: 13.1 µM [inhibitor, single point]",
CCOc1ccccc1CN1CCNC(=O)C1CC(=O)NCCc1ccccn1 (stereo not drawn),"inconclusive: 6.57 µM [inhibitor, partial curve]",
CCCCn1c(=O)[nH]c(=O)c2c1nc(-c1ccc(OCC)cc1)n2CC,"inconclusive: 0.185 µM [inhibitor, full curve, poor fit]",
CC[C@]1(O)CC[C@H]2[C@@H]3CCC4=CCCC[C@@H]4[C@H]3CC[C@@]21C,"inconclusive: 19 µM [inhibitor, single point]",
COc1ccccc1S(=O)(=O)NCc1ccc(C(=O)N(C)Cc2ccc(F)cc2)cc1,"inconclusive: 0.0294 µM [inhibitor, full curve, poor fit]",
COC(=O)c1ccnc(/C=N/O)c1,"inconclusive: 18.5 µM [inhibitor, single point]",
COc1ccc(Cc2nc3ccc(C(=O)NCC4CCOCC4)cc3o2)cc1OC,"inconclusive: 18.5 µM [inhibitor, single point]",
COc1ccc(-n2c(=S)[nH]c3cc(C(=O)Nc4cc(C(N)=O)ccc4OC)ccc3c2=O)c(OC)c1,,inactive: 0%
COc1ccc(/C=N/N=C/c2c[nH]c(=O)c(C#N)c2Nc2ccccc2)cc1,"inconclusive: 18.5 µM [inhibitor, single point]",
Cc1ccsc1C(=O)NCc1ccc(F)cc1,"inconclusive: 20.8 µM [inhibitor, partial curve, poor fit]",
C=CC[n+]1c(/C=C2\C=Cc3cc(C)ccc3N2CC)ccc2ccccc21,"inconclusive: 10.4 µM [inhibitor, partial curve, poor fit]",
COc1cccc(-c2onc3ccc(C4(C)OCCO4)cc23)c1,"inconclusive: 14.7 µM [inhibitor, partial curve, poor fit]",
O=C(CCSc1nccn1Cc1ccccc1)N1CCOCC1,,inactive: 35%
C[C@H]1[C@H](C)CC[C@]2(C)CC[C@]3(C)C(=CC[C@@H]4[C@@]5(C)CC[C@@H](O)[C@](C)(C(=O)O)[C@@H]5CC[C@]43C)[C@H]12,active: 13.1 µM,
COc1cc(C(=O)NCc2cn3cccc(C)c3n2)cc(OC)c1OC,,inactive: -15.9%
CN1CCN(C2CCCCC2NS(=O)(=O)c2ccccc2)CC1 (stereo not drawn),"inconclusive: 11.7 µM [inhibitor, single point]",
c1ccc(C2CCC(N3CCNCC3)CC2)cc1 (stereo not drawn),,inactive: 68.7%
COc1ccc(NC(=O)CSc2nnc(NC(=O)c3ccc(S(=O)(=O)N4CCOCC4)cc3)s2)cc1,,inactive: 1.25%
S=C1SCN(CC2CC2)CN1CC1CC1,active: 5.22 µM,
COCC(=O)N1CCCC(CNS(=O)(=O)c2ccc(OC)cc2)C1 (stereo not drawn),active: 10.4 µM,
COc1cccc(/C=N/NC(=O)c2ccoc2C)c1O,"inconclusive: 10.4 µM [inhibitor, single point]",

# Reformatted with tabs: part of the list above.
Compound	Potency	activity change, negative = inhibition
Cc1ccc(-n2c(COc3cccc(C)c3)n[nH]c2=S)cc1	inconclusive: 9.28 µM [inhibitor, single point]	
COc1ccccc1OCC(=O)Nc1ccc(S(=O)(=O)N2CCCCCC2)cc1	inconclusive: 18.5 µM [inhibitor, single point]	
COc1cccc(C(=O)NCCS(=O)(=O)NCCCc2ccccc2)c1		inactive: 41.8%
